# Screen size: about 31,000 sequences; about 1,400 (4.5%) were called active.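 How the source made its calls: active means median seed-adjusted z-score above 1 or below -1; inactive means the rest.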 This is one part of the list.
# Test: Novel Modifiers of Survival Motor Neuron (SMN) Protein: Gene Identification via Genome-wide siRNA Screen;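 further: luminescence tracks full-length SMN protein made from the SMN2 reporter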
# Details: HEK293T SMN2-luciferase reporter, siRNA knockdown, 72 h; actives lie on both sides
# Summary of the method: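 Steps: spot 1 pmol siRNA, add Lipofectamine RNAiMax in serum-free DMEM, seed HEK293T SMN2–luciferase reporter cells; incubate 72 h at 37 °C; add ONE-Glo; normalize luminescence to control siRNA, log10, MAD. Candidates: |MAD| > 1.0.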
row,Sequence,median seed-adjusted z-score
1,CCAAGUCGGUGGUUGUGAATT against P2RX3,inactive: -0.44
2,CCACGGGUAAAGAAGUUAATT against MKL2,inactive: -0.863
3,CGACUUGAGCGAAGUUUUATT against ZFP36L1,inactive: -0.933
4,ACAACUGUCUGGACCCGUUTT against P2RY8,inactive: -0.136
5,GGCACAGAAAUUAAAGGAATT against FANCA,inactive: 0.418
6,GAAUGAUUUUCCAAAUGGATT against SLC25A21,inactive: -0.219
7,CCAGCUUCACUACACGGUATT against PCDH10,inactive: -0.488
8,GUCAGAUACAUGAACCAGATT against JMJD1A,inactive: 0.466
9,AGAUGGGACGGGUCACUAUTT against GATA4,inactive: -0.24
10,GAGAAUAACCUAUAUGGAATT against PDHA2,inactive: 0.118
11,GUUUGUGACUGUAACCAUUTT against CTBP1,inactive: 0.105
12,GUAUGUUACCUGGAAACUATT against LDHB,inactive: -0.515
13,CGGCGUGAGGAUUACCAAATT against HOMEZ,inactive: -0.0614
14,CGUUCGUAUUUAUAUUAAATT against HOXA3,inactive: 0.315
15,UCCGCAAACUCAACCCUUUTT against EHD2,inactive: 0.0989
16,AGCUGGUUCCCGUUUUCCATT against HRK,inactive: 0.217
17,AGACGUAUCUUGACAUCUUTT against CENTB1,inactive: -0.239
18,CUGUUCCCGUAGACAAAGATT against SRP68,inactive: 0.721
19,GCUCAUUCAUCAGAGGGAATT against DZIP1L,inactive: 0.203
20,GUGUGAAGGCUGAAGAAGATT against RALB,inactive: -0.534
21,GGGUAUUGAUCAGUCCAUUTT against CETP,inactive: 0
22,GGGCAAUUUCAGAAACGCATT against CATSPER1,inactive: 0.655
23,GCUCGUCGAGGUUACUACATT against PPIL1,inactive: 0.166
24,GCCCUGAUCCCUACGAGAATT against CACNA1H,inactive: -0.147
25,CAUUCGGUAUUUUAUUCUATT against SNRPD1,active: -2.97
26,GCAUCGGAUUAAACAGCUUTT against PRICKLE1,inactive: -0.486
27,CUAUCAAAGCUUCCACUUUTT against NMUR2,inactive: 0.529
28,GGGUCAUCCGAGAAAAGAATT against ADAMTS17,inactive: 0.257
29,GCAUGAUAGGUGGGAUAAATT against SGK269,inactive: -0.171

# From no. 17 up to 18, copied from above:
row,Sequence,median seed-adjusted z-score
17,AGACGUAUCUUGACAUCUUTT against CENTB1,inactive: -0.239
18,CUGUUCCCGUAGACAAAGATT against SRP68,inactive: 0.721
